Tested on: T. cruzi epimastigotes
Assay: Scanning and transmission electron microscopy of treated epimastigotes
Assay type: cell-based, Trypanosoma cruzi
Conditions: treated at IC50 concentration, 24-72 h

## COc1cc(/C=C/C(=O)CC(=O)/C=C/c2ccc(O)c(OC)c2)ccc1O [CUR, Curcumin]
  ultrastructural changes of epimastigotes: disorganized and/or displaced microtubules
Listed as curcumin
  ultrastructural changes of epimastigotes: reduced cell volume
